## Results of single-concentration screens

Amino acid sequences for entries named in this document (tags omitted).
UniProt I6X8D2, whole entry: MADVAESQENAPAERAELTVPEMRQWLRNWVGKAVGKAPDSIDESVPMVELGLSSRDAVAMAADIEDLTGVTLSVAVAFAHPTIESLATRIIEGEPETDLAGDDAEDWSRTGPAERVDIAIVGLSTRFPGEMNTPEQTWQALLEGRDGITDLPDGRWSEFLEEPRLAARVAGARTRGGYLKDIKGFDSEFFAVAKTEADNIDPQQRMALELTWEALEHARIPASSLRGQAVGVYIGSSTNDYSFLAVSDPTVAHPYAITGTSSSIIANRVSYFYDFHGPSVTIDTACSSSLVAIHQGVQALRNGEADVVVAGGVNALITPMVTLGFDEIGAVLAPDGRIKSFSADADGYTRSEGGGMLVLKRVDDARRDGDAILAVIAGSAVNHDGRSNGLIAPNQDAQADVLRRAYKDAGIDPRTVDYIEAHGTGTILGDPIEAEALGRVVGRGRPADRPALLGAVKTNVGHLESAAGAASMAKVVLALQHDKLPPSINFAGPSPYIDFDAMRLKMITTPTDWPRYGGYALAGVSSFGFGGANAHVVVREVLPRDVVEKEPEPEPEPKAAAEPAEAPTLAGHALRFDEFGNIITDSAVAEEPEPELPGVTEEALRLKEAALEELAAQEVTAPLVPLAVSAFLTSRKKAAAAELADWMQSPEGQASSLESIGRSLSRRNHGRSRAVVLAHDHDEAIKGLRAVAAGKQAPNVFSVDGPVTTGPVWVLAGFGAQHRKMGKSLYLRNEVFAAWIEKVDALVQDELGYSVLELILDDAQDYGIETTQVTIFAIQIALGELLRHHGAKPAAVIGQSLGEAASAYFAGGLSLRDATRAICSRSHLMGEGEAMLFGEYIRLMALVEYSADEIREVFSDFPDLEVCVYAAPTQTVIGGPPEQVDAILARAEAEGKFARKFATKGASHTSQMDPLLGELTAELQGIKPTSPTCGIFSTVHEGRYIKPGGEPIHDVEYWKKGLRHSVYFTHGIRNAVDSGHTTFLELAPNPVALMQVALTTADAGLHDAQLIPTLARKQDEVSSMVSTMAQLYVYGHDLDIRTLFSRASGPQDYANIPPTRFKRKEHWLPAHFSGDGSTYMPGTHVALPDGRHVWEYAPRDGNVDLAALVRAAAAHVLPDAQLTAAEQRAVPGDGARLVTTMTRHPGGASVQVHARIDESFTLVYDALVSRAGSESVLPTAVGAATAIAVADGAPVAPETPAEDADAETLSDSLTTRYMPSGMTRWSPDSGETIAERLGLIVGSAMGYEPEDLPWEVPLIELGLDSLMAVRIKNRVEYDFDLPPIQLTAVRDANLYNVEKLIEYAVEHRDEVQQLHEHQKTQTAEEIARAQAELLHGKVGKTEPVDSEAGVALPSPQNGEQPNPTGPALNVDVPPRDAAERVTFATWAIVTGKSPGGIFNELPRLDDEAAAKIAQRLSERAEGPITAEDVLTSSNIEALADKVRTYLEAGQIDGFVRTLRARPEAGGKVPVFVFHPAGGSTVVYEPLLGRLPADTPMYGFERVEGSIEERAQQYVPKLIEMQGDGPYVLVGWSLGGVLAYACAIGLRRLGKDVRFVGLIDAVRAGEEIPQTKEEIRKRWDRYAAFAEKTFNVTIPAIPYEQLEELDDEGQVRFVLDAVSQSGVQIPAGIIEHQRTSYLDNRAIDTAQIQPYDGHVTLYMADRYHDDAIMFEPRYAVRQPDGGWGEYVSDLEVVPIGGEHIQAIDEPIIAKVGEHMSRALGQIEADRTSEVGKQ

Values are the deposited “Percent Effect”, in %. The controls that fix the scale are not given in the record; negative values are as filed. This is an unselected part of the compounds tested. A dash means the value is not listed here; it may have been measured.

Toxoplasma: 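Assay of Toxoplasma gondii numbers, read through their beta-galactosidase reporter with a colour substrate. Compounds at 10 µM. Higher reads as fewer parasites (inferred from which compounds were picked for retests). Size under these conditions: about 67,000 compounds, about 260 of them at 50% or above in at least one test.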
Pks13 thioesterase: 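Polyketide synthase Pks13, Mycobacterium tuberculosis (UniProt I6X8D2). Enzyme assay of the thioesterase domain of polyketide synthase 13; the read-out is not stated. Compounds at 30 µM. Higher reads as stronger inhibition (inferred from which compounds were picked for retests). Size under these conditions: about 67,000 compounds, about 300 of them at 50% or above in at least one test.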

| # | Compound | Toxoplasma | Pks13 thioesterase |
|---|---|---|---|
| 1 | `CCOc1ccc(Cl)cc1C(C(=O)O)N1CCOCC1` (centres undefined) | 8.142 | -2.218 |
| 2 | `CCOCCC(=O)NC(Cc1ccc(C)cc1)c1ccccn1` (centres undefined) | 20.7 | -6 |
| 3 | `OC1CCN(c2ccnc3c(F)cc(Br)cc23)CC1` | 5.227 | -4.768 |
| 4 | `COCCNC(=O)NCc1cc(-c2ccncc2)n(C2CCCC2)n1` | 2.323 | -9.96 |
| 5 | `CC(C)N(C)C(=O)CN1CCCC(c2ccc(C(=O)O)cc2)C1` (centres undefined) | -5.699 | -2.654 |
| 6 | `C[C@@H]1C[C@@H]2CCN(Cc3ccccn3)C[C@H]2O1` | - | 1.281 |
| 7 | `[H][C@]12CCC[C@@]1(COC)CN(C(=O)CCOC)C2` | -4.603 | - |
| 8 | `CC(C)CN1C[C@H]2C[C@H](C(=O)NC3CCC3)[C@@H](C1)O2` | - | 8.305 |
| 9 | `Cc1ccc2oc(SCC(N)=O)nc2n1` | 8.302 | 19.24 |
| 10 | `CCN(CC)c1nc2sc(C(=O)N3CCNC(=O)C3)cc2s1` | -15.96 | 36.26 |
| 11 | `Cc1csc(CNC(=O)Nc2cc(C(F)(F)F)c[nH]c2=O)n1` | -4.245 | -8.72 |
| 12 | `O=C(c1cocn1)N1CC[C@H]2OCC[C@@]2(COc2ncccc2F)C1` | - | -31.02 |
| 13 | `CCNc1ccnc(NC2CCN(CC(N)=O)CC2)n1` | 3.744 | -38.93 |
| 14 | `Cc1nnc([C@@]23CCO[C@@H]2CCN(Cc2nccs2)C3)o1` | - | -3.833 |
| 15 | `Cc1cc(N2CCC(c3ncc[nH]3)CC2)nc(N)n1` | -8.573 | -10.91 |
| 16 | `COCCC(=O)N1CCC(c2cc(O)n(C)n2)C1` (centres undefined) | -4.524 | 2.618 |
| 17 | `CCC(=O)N1CCN(S(=O)(=O)c2cccc(F)c2)[C@H]2CS(=O)(=O)C[C@H]21` | - | -33.94 |
| 18 | `CC(C)N1CCCN(c2nc(-c3cccnc3)nc3c2cnn3C)CC1` | 55.95 | 0.97 |
| 19 | `[H][C@@]12CN(Cc3ccc(C)c(F)c3F)C[C@]1(C(=O)O)CN(CC1CC1)C2=O` | -2.021 | - |
| 20 | `O=C(O)C(F)(F)F.[H][C@@]12OCCN(Cc3ccco3)[C@@]1([H])CC[C@H]2OCC1CC1` | -9.796 | - |
| 21 | `c1cncc(CN2CCCn3nnc(CN4CCCCC4)c3C2)c1` | -0.8907 | -1.825 |
| 22 | `COc1c(C)cnc(CNCC(C)C)c1C` | -58.38 | -5.873 |
| 23 | `O=C(NCCNC(=O)c1scnc1Cl)c1ccoc1` | -19.95 | -30.17 |
| 24 | `Cc1ccccc1CN(Cc1ccccn1)C(=O)CNS(C)(=O)=O` | -8.952 | -16.56 |
| 25 | `O=C(O)C(F)(F)F.[H][C@@]12COC[C@H](C(=O)N3CCC(F)CC3)[C@]1([H])CN(C1CCOCC1)C2` | 5.686 | - |
| 26 | `Cc1cc(CN2CC[C@H]3C[C@@H](c4nccs4)O[C@@H]3C2)no1` | - | -1.028 |
| 27 | `CN1CCCCC1Cc1nc(Cc2cccc(F)c2)no1` (centres undefined) | -0.4507 | -35.12 |
| 28 | `c1ccc(-c2cnc(CN(Cc3cccnc3)CC3CCCO3)o2)cc1` (centres undefined) | 19.07 | -12.6 |
| 29 | `O=C([C@H]1CN(CCc2ccccc2)C[C@H]2OCC[C@@H]12)N1CCCO1` | - | -16.45 |
| 30 | `Cc1occc1C(=O)N1CCC2(CCN(Cc3cccs3)C2)CC1` | - | -40.74 |
| 31 | `CCOCCCNC(=O)c1nc2c(s1)CCCN2c1ccc(C)nn1.O=C(O)C(F)(F)F` | 14.95 | - |
| 32 | `O=C(Cc1ccc(-n2cccn2)cc1)N1CCCC(n2cccn2)C1` (centres undefined) | 4.548 | -27.05 |
| 33 | `O=C1CC(N(C(=O)c2ccccc2Br)C2CC2)C(=O)N1` (centres undefined) | -1.063 | -17.37 |
| 34 | `CC(C)Oc1ncccc1CNC(=O)C1CCCN(C(=O)C2CC2)C1` (centres undefined) | 1.835 | -7.258 |
| 35 | `CCCS(=O)(=O)N1C[C@@H](c2nc(C)no2)C[C@H]2OCC[C@H]21` | - | -3.819 |
| 36 | `[H][C@@]12CS(=O)(=O)C[C@]1([H])N(C(=O)Cc1cccnc1)CCN2CCC` | 0.6747 | - |
| 37 | `COCCC(=O)N1CCc2c(CNc3ncccn3)cncc2C1.Cl` | 2.592 | - |
| 38 | `CC(Cc1ccccn1)N(C)Cc1ccc2c(c1)CCO2` (centres undefined) | -7.569 | -35.6 |
| 39 | `CSCC(C)(O)CNS(=O)(=O)c1ccc(F)cc1` (centres undefined) | -26.4 | -6.486 |
| 40 | `CC1c2ncc(COCC3CC3)n2CCN1C(=O)c1ccn(C)n1` (centres undefined) | -0.2973 | -9.692 |
| 41 | `Cc1ccc(C)c2c(C)c(C(=O)NCCC(=O)N3CCOCC3)oc12` | 5.882 | 2.455 |
| 42 | `O=C(CN1CCOC(Cn2cccn2)C1)Nc1nccs1` (centres undefined) | 5.816 | -13.88 |
| 43 | `CCn1cc(CN2CCCN(C(=O)CCCn3cncn3)CC2)cn1` | 1.376 | -6.379 |
| 44 | `COCCc1noc(CN2CCCC2Cn2nc(C)cc2C)n1` (centres undefined) | -22.2 | -31.69 |
| 45 | `CCc1nnsc1C(=O)N1CCCC(n2nc(C)nc2C)C1` (centres undefined) | 10.37 | - |
| 46 | `c1cc(CC2CCCNC2)nc(NCCc2cnccn2)c1` (centres undefined) | - | 4.971 |
| 47 | `NC(=O)CN(Cc1ncc(-c2ccccc2)o1)C1CCCC1` | 5.393 | -38.64 |
| 48 | `O=c1c2sccc2nc2n1CCN(Cc1ccc(F)c(F)c1)CC2` | - | 4.756 |
| 49 | `CN(C)C(=O)CO[C@H]1CO[C@@]2(CCN(Cc3ccoc3)C2)C1` | -18.99 | 46.23 |
| 50 | `Cc1nc(CN2C(=O)COC3(CCN(Cc4nccs4)CC3)C2C)cs1` (centres undefined) | - | -20.35 |
| 51 | `Cn1nccc1-c1cc(C2CCN(S(C)(=O)=O)CC2)ccn1` | -4.134 | 14.83 |
| 52 | `CC(C)(CNC(=O)c1ccc(Cl)o1)NC(=O)OC(C)(C)C` | 14.77 | -29.92 |
| 53 | `O=S(=O)(Cc1ccccc1F)N1CCCC1c1nnc2n1CCCCC2` (centres undefined) | -1.363 | 6.837 |
| 54 | `c1cnc2[nH]c(C3CCNCC3)c(CN3CCOCC3)c2c1` | 4.013 | -4.596 |
| 55 | `CNC(=O)c1ccc(C2CN(CC(=O)N(C)C)CCO2)nc1` (centres undefined) | -5.282 | 15.89 |
| 56 | `CN(C)C[C@@H]1CN(C(=O)c2cc(S(N)(=O)=O)ccc2F)C[C@@H]1CO` | -3.404 | -25.68 |
| 57 | `Cn1cnc2c(N3CCCC3)nc(C3CCN(CC4CC4)CC3)cc21.O=C(O)C(F)(F)F.O=C(O)C(F)(F)F` | 16.28 | - |
| 58 | `Cn1cccc1C(=O)NCc1cnc2n1CCN(CC1CCOCC1)C2` | - | -12.51 |
| 59 | `Cc1nn(C(C)C)c(C)c1NC(=O)Nc1cccnc1N1CCCC1` | -0.4545 | 40.87 |
| 60 | `COc1ccc(CN(C)CC(O)COCc2ccccc2Cl)c(OC)c1` (centres undefined) | - | 5.272 |
| 61 | `CC(C)C1CN(c2cccc(C#N)n2)CCCN1CC1CC1` (centres undefined) | 13.07 | -73.73 |
| 62 | `COc1ccccc1N1CCN(c2nc(N)nc3[nH]cnc23)CC1` | - | 9.24 |
| 63 | `CC(C)c1noc(CCCC(=O)NC(C)c2nnc3n2CCC3)n1` (centres undefined) | -3.42 | -4.84 |
| 64 | `COC(=O)Cc1cn2cc(C(F)(F)F)ccc2n1` | 27.98 | -2.152 |
| 65 | `CCCC(Cn1cnc(-c2ccccc2)c1-c1cncn1CC)N(C)C` (centres undefined) | -12.73 | 0.482 |
| 66 | `CCCn1nnc(NCc2ccc(-c3ccc(Br)cc3)o2)n1` | -2.879 | 50.32 |
| 67 | `Cc1cc(N2CCC(O)CC2)nc(C2CCCN2C)n1` (centres undefined) | 12.78 | 44.43 |
| 68 | `COC(=O)COn1c(OC)nc2ccccc2c1=O` | 11.73 | 28.62 |
| 69 | `Cc1cnn(CC(C)NCc2csc(-c3cccs3)n2)c1` (centres undefined) | 7.078 | -19.21 |
| 70 | `O=C1NC2(CCCN(C(=O)CCn3cncn3)C2)Oc2ccccc21` (centres undefined) | -38.1 | 2.01 |
| 71 | `COCCO[C@@H]1CCN(C(=O)c2ccc(C)o2)[C@@H]1Cc1cnn(C)c1` | -5.928 | -1.779 |
| 72 | `Cc1csc(CN(C)C(=O)Nc2cc(F)cc(N3CCCC3)c2)n1` | -0.5564 | -7.061 |
| 73 | `Cc1noc(C)c1CN(C)Cc1csc(-c2ccccc2F)n1` | -0.7088 | -4.425 |
| 74 | `CNCC[C@H]1CC(C)(C)Oc2ccc(C)cc21` | 26.67 | 19.91 |
| 75 | `Cc1cccc2nc(CSCC(=O)Nc3nnc(C(C)C)s3)cc(=O)n12` | -5.82 | 2.912 |

6 of the entries, repeated:

- CC(C)C1CN(c2cccc(C#N)n2)CCCN1CC1CC1 (centres undefined) : Toxoplasma: 13.07%; Pks13 thioesterase: -73.73%
- CC(C)c1noc(CCCC(=O)NC(C)c2nnc3n2CCC3)n1 (centres undefined) : Toxoplasma: -3.42%; Pks13 thioesterase: -4.84%
- CC(C)CN1C[C@H]2C[C@H](C(=O)NC3CCC3)[C@@H](C1)O2 : Pks13 thioesterase: 8.305%
- Cc1cc(CN2CC[C@H]3C[C@@H](c4nccs4)O[C@@H]3C2)no1 : Pks13 thioesterase: -1.028%
- CCCS(=O)(=O)N1C[C@@H](c2nc(C)no2)C[C@H]2OCC[C@H]21 : Pks13 thioesterase: -3.819%
- CCCC(Cn1cnc(-c2ccccc2)c1-c1cncn1CC)N(C)C (centres undefined) : Toxoplasma: -12.73%; Pks13 thioesterase: 0.482%

Data taken from ChEMBL document CHEMBL3988442, “University of Dundee, Small-Polar-MMV Screening Library” (2021).